Measurements reported in PubChem BioAssay AID1259254 (NCATS, 2017)

- Screen: 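Gene knock-downs that lead to re-replication, shown by excess G2 DNA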 (primary screen)
- Cell system: human HCT116 colorectal cancer cells
- Reagents: single siRNA against human genes
- Time to read-out: 3 days
- Measured: 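Imaged Hoechst DNA stain sorts each cell into a cycle phase by DNA amount; per plate, G2 fraction set to 0% for non-targeting and 100% for GMNN siRNA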
- Scale: G2 robust z-score and G2 cells, % of GMNN control: higher = more G2 cells, more excess DNA replication; raw share of cells in G2: higher = larger share of cells with G2 DNA content
- Hit rule: 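Active siRNAs have a G2 robust z of 5 or more median absolute deviations over the median, which in these data means about 38% or higher of GMNN control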
This is one part, drawn at random, of about 59,000 reagents tested. Over the whole deposit, about 1,550 (2.6%) are marked active. 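G2 share is only a proxy for re-replication; each gene was hit by three separate siRNAs, and active genes were retested.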 The raw values are shown without normalisation. Unmarked entries are inactive. The numbers tell different reagents against one gene apart. Not stated in the record: the amount of reagent.

The first 8 records as a preview:
gene	reagent no.	G2 robust z-score	G2 cells, % of GMNN control	raw share of cells in G2 (%)
MAN1A1	1	0.274	4.89	7.41
MAN1A1	2	-0.589	-1.17	2.81
MAN1A1	3	-1.45	-7.25	2.56
C11orf52	1	-0.922	-3.52	2.59
C11orf52	2	0.284	4.97	4.56
C11orf52	3	-0.246	1.24	3.32
SMAD6	1	0.0256	3.15	4.71
SMAD6	2	-0.103	2.24	5.9

Main list, repeating the preview:
gene	reagent no.	G2 robust z-score	G2 cells, % of GMNN control	raw share of cells in G2 (%)
MAN1A1	1	0.274	4.89	7.41
MAN1A1	2	-0.589	-1.17	2.81
MAN1A1	3	-1.45	-7.25	2.56
C11orf52	1	-0.922	-3.52	2.59
C11orf52	2	0.284	4.97	4.56
C11orf52	3	-0.246	1.24	3.32
SMAD6	1	0.0256	3.15	4.71
SMAD6	2	-0.103	2.24	5.9
SMAD6	3	1	10	6.74
SAFB2	1	0.359	5.5	6.98
SAFB2	2	0.505	6.52	7.67
SLC22A14	1	0.732	8.12	5.97
SLC22A14	2	-1.02	-4.2	3.04
SLC22A14	3	-0.648	-1.59	4.6
DAZAP2	1	-0.926	-3.55	3.73
DAZAP2	2	0.654	7.57	7.1
DAZAP2	3	0.251	4.73	5.13
TMEM72	1	-0.421	0.00628	3.64
TMEM72	2	0.277	4.92	5.04
TMEM72	3	0.563	6.93	5.16
LIPG	1	0.578	7.03	7.6
LIPG	2	0.155	4.06	4.59
LIPG	3	7.64 (active)	56.7	26.6
ST6GALNAC4	1	1.5	13.5	12.3
ST6GALNAC4	2	2.59	21.2	11.2
ST6GALNAC4	3	-1.58	-8.18	1.31
CLMP	1	-0.658	-1.66	3.76
CLMP	2	-0.607	-1.3	3.73
CLMP	3	0.0237	3.13	3.23
RANBP6	1	0.62	7.33	9.49
RANBP6	2	-1.34	-6.43	2.05
RANBP6	3	-0.256	1.17	4.37
AQP1	1	-0.108	2.21	5.86
AQP1	2	0.254	4.76	5.76
AQP1	3	3.28	26	13.6
NUDT9	1	-1.23	-5.66	1.63
NUDT9	2	-1.1	-4.77	3.79
NUDT9	3	-0.352	0.493	4.43
NAT8B	1	-0.22	1.42	4.77
NAT8B	2	-0.128	2.07	4.59
NAT8B	3	-0.957	-3.77	4.24
WIPI2	1	1.3	12.1	8.96
WIPI2	2	1.42	13	9.57
WIPI2	3	-0.173	1.75	3.91
TSNARE1	1	-0.328	0.661	3.32
TSNARE1	2	-0.482	-0.424	3.02
TSNARE1	3	-0.917	-3.48	2.3
SNX20	1	0.693	7.84	7.24
SNX20	2	2.28	19	9
SNX20	3	-0.982	-3.94	0.666
FGA	1	1.38	12.7	9.85
FGA	2	-0.619	-1.39	4.74
FGA	3	-0.652	-1.62	3.08
ARID4B	1	-0.633	-1.48	2.27
ARID4B	2	-0.637	-1.51	5.23
ARID4B	3	4.89	37.4	15.4
TOX4	1	0.335	5.33	7.22
TOX4	2	0.16	4.1	6.41
TOX4	3	-0.872	-3.17	2.12
ROS1	1	-1.54	-7.88	3.01
ROS1	2	1.41	12.9	9.76
ROS1	3	-1.09	-4.69	2.37
SERINC1	1	1.39	12.8	10.9
SERINC1	2	2.87	23.1	12.6
SERINC1	3	-0.455	-0.237	4.26
ATMIN	1	-0.12	2.12	6.25
ATMIN	2	-1.03	-4.27	3.64
ATMIN	3	0.407	5.83	5.55
